The values that follow come from publication PMC7819943, “Rice protein-binding microarrays: a tool to detect cis-acting elements near promoter regions in rice”.

Some of the results follow.

This assay has as its target T1, OsSMF1 (Oryza sativa, UniProt Q6ZLB0 1-436).
T1 sequence: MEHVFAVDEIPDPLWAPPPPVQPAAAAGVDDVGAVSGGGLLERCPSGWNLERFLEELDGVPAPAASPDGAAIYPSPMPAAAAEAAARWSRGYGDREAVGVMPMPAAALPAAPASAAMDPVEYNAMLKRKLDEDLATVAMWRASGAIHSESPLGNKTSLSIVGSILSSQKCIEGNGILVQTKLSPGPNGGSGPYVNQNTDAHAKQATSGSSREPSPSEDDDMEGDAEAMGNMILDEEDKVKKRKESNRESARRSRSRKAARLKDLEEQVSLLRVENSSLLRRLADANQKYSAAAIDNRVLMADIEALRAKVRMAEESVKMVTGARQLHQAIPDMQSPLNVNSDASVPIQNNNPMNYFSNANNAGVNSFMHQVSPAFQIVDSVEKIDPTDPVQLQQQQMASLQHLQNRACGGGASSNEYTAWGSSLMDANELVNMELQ
Briefly: protein-binding microarray (RPBM); PBS, 2% BSA, 51.3 ng/ul salmon testes DNA, 50 uM zinc acetate, 200 nM TF, 25 C, 1 h; high values mean tight binding. To be noted: protein: recombinant; tags: N-terminal polyhistidine and DsRed monomer fusion (pET32a); chain copies: 2; label: CyDye5-dUTP incorporated in the synthesized complementary strand; 3' TTTTT single-stranded linker to array surface; dsDNA, one strand shown. In outline:
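Binding signal here means per-feature fluorescence intensity in arbitrary units. The values were read on an Axon 4000B scanner after a custom Agilent array, double-stranded by primer extension with Cy5-dUTP, was incubated with 200 nM protein at 25 °C for 1 h in PBS with 2% BSA, salmon testes DNA and 50 µM zinc acetate, then washed. The proteins were transcription factors with an N-terminal polyhistidine tag and DsRed, expressed in E. coli BL21-CodonPlus and purified on Ni–NTA.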
On to “TGCAGCGAGGCCGGCGTGTTGCCACGGTGGATCTGTGAATCGGAGTCACCTAGTGCAG”, for which the binding signal is 8000 fluorescence intensity (a.u.).
For “CTTCTTCGGATCACTCGGTTGGTTTCTTGGTTTCTTGGTTCGGAGTCACCTAGTGCAG”, the binding signal is 3140 fluorescence intensity (a.u.).
As for “ATTATCCTCGTCGGTCGCCGGCACGCCGCAACGTCAGCCCCGGAGTCACCTAGTGCAG”, the figure is 6820 fluorescence intensity (a.u.).
The value for “CCCCGCCGTCCATCCACCTCACCGACGGCCGGATGCGCCCCGGAGTCACCTAGTGCAG” was 3810 fluorescence intensity (a.u.).
The value for “GTTGGTTTGATGTTGGTTTTGGTCCTACGTGGCGTATCAGCGGAGTCACCTAGTGCAG” was 21400 fluorescence intensity (a.u.).
For “GTTGCGGTCGTCGTCCACCTCCGCCGCCTCTTCGCCATCTCGGAGTCACCTAGTGCAG”, the binding signal is 3330 fluorescence intensity (a.u.).
As for “CCCTTTCGGACCCTCGTCACTCATCGTCGTTTGCCCGGCGCGGAGTCACCTAGTGCAG”, the figure is 4530 fluorescence intensity (a.u.); as for “ATACTCTAAATTAGTGTCCAAACATCCGATGTGACATGGACGGAGTCACCTAGTGCAG”, 5080 fluorescence intensity (a.u.).
As for “CTGCGATTCGTCGCGCGGCGTTCTCGCGGGATCCACCGGTCGGAGTCACCTAGTGCAG”, the figure is 3220 fluorescence intensity (a.u.).
The value for “AATTCATCCTATGACGGCTTTACTGAACCTTGATTTATATCGGAGTCACCTAGTGCAG” was 3770 fluorescence intensity (a.u.); that for “GCTTCCTGCGTGACAAGCTGTTGTCCGGGGTGCTCGCCAACGGAGTCACCTAGTGCAG” was 32200 fluorescence intensity (a.u.); that for “CTTCGTTCACTCCGCCTACCTACCTACCTCTGCAGTTGGTCGGAGTCACCTAGTGCAG” was 16400 fluorescence intensity (a.u.).
As for “GATGCTTGCATCGATGAAGTCCATCGTCAGATATATATCGCGGAGTCACCTAGTGCAG”, the binding signal is 3600 fluorescence intensity (a.u.).
As for “ATATTGATTTGTAACATCACAGACACACATGATCTTTAGCCGGAGTCACCTAGTGCAG”, the figure is 3530 fluorescence intensity (a.u.).
As for “GAGGAGGTGGCCGCGTCACTCCCCGCTCCGGCGATCCGGCCGGAGTCACCTAGTGCAG”, the figure is 7790 fluorescence intensity (a.u.).
The value for “GGATTACTGGTCTACTACTCCAACCCCGTGGCCACCGTGGCGGAGTCACCTAGTGCAG” was 6880 fluorescence intensity (a.u.).
With “GTGTTCGTTATTCCAGATTGGGAACTTATCCCTTTCCATGCGGAGTCACCTAGTGCAG”, the binding signal was 11500 fluorescence intensity (a.u.).
The value for “ACATATGGTGCCCACTATATGCCACGTCTGTGAAACCGAGCGGAGTCACCTAGTGCAG” was 10600 fluorescence intensity (a.u.); that for “ACCCACCGCCGCAACACGCGCTCCACCGCCAACACATCGCCGGAGTCACCTAGTGCAG” was 4660 fluorescence intensity (a.u.); that for “TTGCCAAGCTTGAGGACCTTGCCGTGTACCACTTGTAGAACGGAGTCACCTAGTGCAG” was 32800 fluorescence intensity (a.u.).
As for “GATGACACAGTAGTACTCCTAGGCACGTACGTACTTTCTCCGGAGTCACCTAGTGCAG”, the figure is 3620 fluorescence intensity (a.u.); as for “ACCGTGAGATGGACACGTCATTGCTATTCACATGAGATGTCGGAGTCACCTAGTGCAG”, 13700 fluorescence intensity (a.u.); as for “TTCTCCGGCACCTCCGGCTGGTGCGACACGCGGTTCGTGCCGGAGTCACCTAGTGCAG”, 3450 fluorescence intensity (a.u.).
The value for “AGAGGAAGTACAGACACATTTTCATCAGGATGTTGTATTGCGGAGTCACCTAGTGCAG” was 24700 fluorescence intensity (a.u.); that for “CTACATATCAGGTGTCCACGTCACCCTCTCTCTTTCCCCTCGGAGTCACCTAGTGCAG” was 37200 fluorescence intensity (a.u.); that for “CCGGTCGGTACTAGTTCGGGGCGTGACACATGGTAGTTATCGGAGTCACCTAGTGCAG” was 4000 fluorescence intensity (a.u.).
On to “AATATGATAATGCTATTGTTCACACACGAATGTCGACGTGCGGAGTCACCTAGTGCAG”, for which the binding signal is 3530 fluorescence intensity (a.u.).
As for “CATTTGACCGTGGTCTTGCCTACGTGGCACGCCACGTGAACGGAGTCACCTAGTGCAG”, the figure is 31800 fluorescence intensity (a.u.); as for “CATCATTGCTGCTGCTCTGCCATCGTCGCGCGCACACACGCGGAGTCACCTAGTGCAG”, 4030 fluorescence intensity (a.u.).
In the case of “TGAACTGTAGAAGCGCCCTTGTCTATGAACTTGTTTGGACCGGAGTCACCTAGTGCAG”, the binding signal is 3630 fluorescence intensity (a.u.).
The value for “TCACTTTTAAAATATTTGTCAATCAAATGTGATGACTACACGGAGTCACCTAGTGCAG” was 3200 fluorescence intensity (a.u.).
As to “ATCAGCATTTCGCCTTTCGTCGTCGTCGTCATCATCCACTCGGAGTCACCTAGTGCAG”, the binding signal was 6320 fluorescence intensity (a.u.).
As for “GCCTCCCCGCGCCTTGCTGCCACCGACTGGGCGACGCCGACGGAGTCACCTAGTGCAG”, the figure is 3310 fluorescence intensity (a.u.); as for “GAGGCAAAGGCAACACGTCCGCACGCCCGCCGACCACCTCCGGAGTCACCTAGTGCAG”, 3840 fluorescence intensity (a.u.); as for “CTTGTTAGTGGATGATGATGTGGCATCCTTGTATGTTAAGCGGAGTCACCTAGTGCAG”, 19800 fluorescence intensity (a.u.).
For the sequence “TGCTTACAGCGAAGCCATGCAGATTGCAGGCAGGCAGGCACGGAGTCACCTAGTGCAG”, the binding signal is 20500 fluorescence intensity (a.u.).
As for “GTGGGTCGATGATGACGAGATCCTCCCAACAGCCCCACCCCGGAGTCACCTAGTGCAG”, the figure is 3780 fluorescence intensity (a.u.); as for “GGCTCTCCTCCGGCCGCCACGTCGCCGGCTCCGGCCAGCACGGAGTCACCTAGTGCAG”, 9580 fluorescence intensity (a.u.).
With “GCCTACCCGCCGGAATCTTGCGTCATCTGGCGGCCGCCGCCGGAGTCACCTAGTGCAG”, the binding signal was 6110 fluorescence intensity (a.u.).
As for “CGGCGGTGGGCCGGATCCAGACGCGTGGAGTCGGGACCGGCGGAGTCACCTAGTGCAG”, the figure is 3240 fluorescence intensity (a.u.); as for “ATGCATGCATATATGTAGGTGTAGATAATAATAATTTCACCGGAGTCACCTAGTGCAG”, 5710 fluorescence intensity (a.u.).
The value for “ATTCGTCTGCGCTGCCCCGCGGCGGTGGCGGTGACGGTGGCGGAGTCACCTAGTGCAG” was 4150 fluorescence intensity (a.u.); that for “CTCCACTTAAAATGGGAGTAGAGCTAGGTGGAGCGTTCTCCGGAGTCACCTAGTGCAG” was 5420 fluorescence intensity (a.u.).
As for “AAAGGCCCAACCCAGTTGATCCTGGGCCATTATCCCGTCACGGAGTCACCTAGTGCAG”, the figure is 3160 fluorescence intensity (a.u.).
With “TCCTCCCGGTGTGCCGGAACACCGTCACCTGGATCCGCAACGGAGTCACCTAGTGCAG”, the binding signal is 3610 fluorescence intensity (a.u.).
The value for “TATCCCGTGCTAGTGTATACGTGCTTACGTGCTAGTTAGTCGGAGTCACCTAGTGCAG” was 4120 fluorescence intensity (a.u.); that for “TCCCGCAGGAGTTCCACCCACGTGTCATAAACCATTACAGCGGAGTCACCTAGTGCAG” was 12800 fluorescence intensity (a.u.).
As for “CAGAATTTAGCAACATTAGTTGCTGGTTTGTTGATTGCTTCGGAGTCACCTAGTGCAG”, the figure is 3440 fluorescence intensity (a.u.); as for “CAAGCGTGATGCGTCGACGTCACGAACCAATCTGCAAGGGCGGAGTCACCTAGTGCAG”, 4800 fluorescence intensity (a.u.); as for “TCCACGCCGCCGTCGTCGGCGTCCTCCGCCGCCGTGTCCTCGGAGTCACCTAGTGCAG”, 3610 fluorescence intensity (a.u.).
As to “TCGAGCTGCTTTTCACGAGTTTGCACTTTGCATGACAAGGCGGAGTCACCTAGTGCAG”, the binding signal was 3240 fluorescence intensity (a.u.).
The value for “GATATACTATCCTCCAATGAGTCATCCTGTTTCACTGCTACGGAGTCACCTAGTGCAG” was 3400 fluorescence intensity (a.u.).
The value for “GCTAGTACCGGCATCGCCTGCTTCGCTTTCGTCACGTTCTCGGAGTCACCTAGTGCAG” was 3990 fluorescence intensity (a.u.); that for “CGCTAGTGCGGCGCGGCCCACCAAGGCACCAACACGTAAGCGGAGTCACCTAGTGCAG” was 5610 fluorescence intensity (a.u.).
